Test results reported in the supplement of paper PMC10849652.
The list shows a part of the results.

The chains behind the UniProt entries cited, without tags or fusion partners. Where a name states a change or a piece, a line headed by the entry shows the natural chain unless it says otherwise.
UniProt E9PJD7, whole entry, looked up: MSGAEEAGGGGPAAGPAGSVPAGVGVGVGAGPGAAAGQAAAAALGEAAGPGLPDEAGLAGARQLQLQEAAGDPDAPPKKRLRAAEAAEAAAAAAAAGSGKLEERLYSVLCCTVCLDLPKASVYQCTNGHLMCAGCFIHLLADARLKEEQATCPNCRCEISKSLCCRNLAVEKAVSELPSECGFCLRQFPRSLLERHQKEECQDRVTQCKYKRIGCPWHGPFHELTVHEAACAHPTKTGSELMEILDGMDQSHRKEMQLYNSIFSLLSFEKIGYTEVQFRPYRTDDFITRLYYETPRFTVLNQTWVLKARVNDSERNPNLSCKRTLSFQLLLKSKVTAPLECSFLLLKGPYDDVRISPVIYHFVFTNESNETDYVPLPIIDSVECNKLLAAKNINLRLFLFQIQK
UniProt P0DMU9: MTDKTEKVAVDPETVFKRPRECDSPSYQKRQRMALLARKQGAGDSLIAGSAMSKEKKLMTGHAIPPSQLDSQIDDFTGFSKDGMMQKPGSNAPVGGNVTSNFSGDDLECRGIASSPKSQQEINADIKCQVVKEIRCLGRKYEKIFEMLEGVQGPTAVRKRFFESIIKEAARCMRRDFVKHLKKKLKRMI
UniProt P17812: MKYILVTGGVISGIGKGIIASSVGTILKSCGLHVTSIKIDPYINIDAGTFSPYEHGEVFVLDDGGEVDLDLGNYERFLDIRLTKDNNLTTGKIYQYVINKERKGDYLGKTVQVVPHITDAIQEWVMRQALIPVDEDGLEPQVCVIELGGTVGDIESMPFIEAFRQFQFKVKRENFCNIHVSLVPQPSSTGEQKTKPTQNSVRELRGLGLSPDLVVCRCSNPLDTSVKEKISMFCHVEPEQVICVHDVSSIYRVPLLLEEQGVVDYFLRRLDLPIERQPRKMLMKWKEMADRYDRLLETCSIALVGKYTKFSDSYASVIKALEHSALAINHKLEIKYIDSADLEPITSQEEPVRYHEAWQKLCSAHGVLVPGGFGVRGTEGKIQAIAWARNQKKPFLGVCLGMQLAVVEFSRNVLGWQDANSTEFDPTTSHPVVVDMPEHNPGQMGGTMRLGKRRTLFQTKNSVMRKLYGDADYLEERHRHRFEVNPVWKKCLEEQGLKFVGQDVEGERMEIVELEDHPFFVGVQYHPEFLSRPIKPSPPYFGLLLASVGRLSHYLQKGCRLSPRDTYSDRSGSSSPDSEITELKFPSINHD
UniProt O60888: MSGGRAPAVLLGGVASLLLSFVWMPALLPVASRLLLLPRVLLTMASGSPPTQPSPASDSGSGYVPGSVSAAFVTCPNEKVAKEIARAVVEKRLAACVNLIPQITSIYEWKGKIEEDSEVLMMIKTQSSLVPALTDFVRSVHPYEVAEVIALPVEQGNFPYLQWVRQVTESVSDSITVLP
UniProt Q8N465: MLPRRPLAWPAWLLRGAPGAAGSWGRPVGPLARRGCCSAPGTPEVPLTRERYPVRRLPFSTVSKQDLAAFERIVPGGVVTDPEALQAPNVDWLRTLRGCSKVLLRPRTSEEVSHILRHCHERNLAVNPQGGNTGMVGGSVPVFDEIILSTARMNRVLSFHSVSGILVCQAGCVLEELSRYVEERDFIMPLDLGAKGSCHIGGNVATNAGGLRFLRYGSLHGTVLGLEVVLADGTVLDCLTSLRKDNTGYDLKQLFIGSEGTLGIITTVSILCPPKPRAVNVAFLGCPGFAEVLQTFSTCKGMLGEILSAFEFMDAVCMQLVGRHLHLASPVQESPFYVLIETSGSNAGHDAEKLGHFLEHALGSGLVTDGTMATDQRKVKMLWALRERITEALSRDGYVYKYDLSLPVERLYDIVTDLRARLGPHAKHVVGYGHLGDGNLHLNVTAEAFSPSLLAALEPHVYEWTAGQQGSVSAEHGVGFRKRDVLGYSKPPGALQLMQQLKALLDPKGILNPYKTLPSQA
UniProt Q9UHQ9: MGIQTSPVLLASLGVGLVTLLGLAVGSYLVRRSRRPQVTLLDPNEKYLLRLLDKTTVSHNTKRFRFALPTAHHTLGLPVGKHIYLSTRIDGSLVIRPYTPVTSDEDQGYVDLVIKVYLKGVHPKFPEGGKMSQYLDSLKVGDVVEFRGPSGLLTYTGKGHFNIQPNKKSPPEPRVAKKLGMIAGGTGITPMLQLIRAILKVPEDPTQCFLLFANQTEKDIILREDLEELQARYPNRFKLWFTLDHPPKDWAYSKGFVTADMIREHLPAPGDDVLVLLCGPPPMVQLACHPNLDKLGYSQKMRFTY
UniProt Q96F07, whole entry, looked up: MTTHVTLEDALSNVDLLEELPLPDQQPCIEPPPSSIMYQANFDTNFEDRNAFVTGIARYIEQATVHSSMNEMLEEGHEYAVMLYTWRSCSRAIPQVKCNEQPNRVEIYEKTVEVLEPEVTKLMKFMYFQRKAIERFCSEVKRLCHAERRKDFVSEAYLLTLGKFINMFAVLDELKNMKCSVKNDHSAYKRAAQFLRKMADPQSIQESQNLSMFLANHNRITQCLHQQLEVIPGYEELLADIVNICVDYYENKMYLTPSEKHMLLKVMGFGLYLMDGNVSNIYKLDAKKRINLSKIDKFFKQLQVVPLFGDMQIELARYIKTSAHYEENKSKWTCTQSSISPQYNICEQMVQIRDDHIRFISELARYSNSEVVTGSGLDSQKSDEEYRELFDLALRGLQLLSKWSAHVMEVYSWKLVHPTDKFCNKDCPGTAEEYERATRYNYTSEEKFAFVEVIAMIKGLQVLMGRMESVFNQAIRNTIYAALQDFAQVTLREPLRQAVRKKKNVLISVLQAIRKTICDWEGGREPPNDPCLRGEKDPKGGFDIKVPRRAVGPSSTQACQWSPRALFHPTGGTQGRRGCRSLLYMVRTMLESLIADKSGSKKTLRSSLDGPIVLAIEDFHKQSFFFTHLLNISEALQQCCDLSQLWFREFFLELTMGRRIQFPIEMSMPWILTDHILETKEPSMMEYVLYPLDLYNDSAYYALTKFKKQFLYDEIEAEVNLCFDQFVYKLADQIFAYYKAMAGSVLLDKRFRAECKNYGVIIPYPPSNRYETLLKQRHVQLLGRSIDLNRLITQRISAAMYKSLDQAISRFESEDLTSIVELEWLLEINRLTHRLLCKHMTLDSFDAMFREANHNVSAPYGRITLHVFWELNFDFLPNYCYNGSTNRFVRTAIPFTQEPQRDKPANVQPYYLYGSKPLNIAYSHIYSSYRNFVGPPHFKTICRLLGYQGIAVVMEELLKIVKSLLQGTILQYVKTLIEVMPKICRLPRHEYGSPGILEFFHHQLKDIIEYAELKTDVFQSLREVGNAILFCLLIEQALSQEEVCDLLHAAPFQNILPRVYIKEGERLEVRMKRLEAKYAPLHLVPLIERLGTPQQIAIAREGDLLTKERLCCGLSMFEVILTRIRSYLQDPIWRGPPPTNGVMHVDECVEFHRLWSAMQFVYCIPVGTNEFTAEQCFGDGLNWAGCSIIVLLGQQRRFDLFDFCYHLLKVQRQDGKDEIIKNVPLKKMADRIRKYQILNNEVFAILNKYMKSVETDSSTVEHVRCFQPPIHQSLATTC
UniProt Q1MSJ5: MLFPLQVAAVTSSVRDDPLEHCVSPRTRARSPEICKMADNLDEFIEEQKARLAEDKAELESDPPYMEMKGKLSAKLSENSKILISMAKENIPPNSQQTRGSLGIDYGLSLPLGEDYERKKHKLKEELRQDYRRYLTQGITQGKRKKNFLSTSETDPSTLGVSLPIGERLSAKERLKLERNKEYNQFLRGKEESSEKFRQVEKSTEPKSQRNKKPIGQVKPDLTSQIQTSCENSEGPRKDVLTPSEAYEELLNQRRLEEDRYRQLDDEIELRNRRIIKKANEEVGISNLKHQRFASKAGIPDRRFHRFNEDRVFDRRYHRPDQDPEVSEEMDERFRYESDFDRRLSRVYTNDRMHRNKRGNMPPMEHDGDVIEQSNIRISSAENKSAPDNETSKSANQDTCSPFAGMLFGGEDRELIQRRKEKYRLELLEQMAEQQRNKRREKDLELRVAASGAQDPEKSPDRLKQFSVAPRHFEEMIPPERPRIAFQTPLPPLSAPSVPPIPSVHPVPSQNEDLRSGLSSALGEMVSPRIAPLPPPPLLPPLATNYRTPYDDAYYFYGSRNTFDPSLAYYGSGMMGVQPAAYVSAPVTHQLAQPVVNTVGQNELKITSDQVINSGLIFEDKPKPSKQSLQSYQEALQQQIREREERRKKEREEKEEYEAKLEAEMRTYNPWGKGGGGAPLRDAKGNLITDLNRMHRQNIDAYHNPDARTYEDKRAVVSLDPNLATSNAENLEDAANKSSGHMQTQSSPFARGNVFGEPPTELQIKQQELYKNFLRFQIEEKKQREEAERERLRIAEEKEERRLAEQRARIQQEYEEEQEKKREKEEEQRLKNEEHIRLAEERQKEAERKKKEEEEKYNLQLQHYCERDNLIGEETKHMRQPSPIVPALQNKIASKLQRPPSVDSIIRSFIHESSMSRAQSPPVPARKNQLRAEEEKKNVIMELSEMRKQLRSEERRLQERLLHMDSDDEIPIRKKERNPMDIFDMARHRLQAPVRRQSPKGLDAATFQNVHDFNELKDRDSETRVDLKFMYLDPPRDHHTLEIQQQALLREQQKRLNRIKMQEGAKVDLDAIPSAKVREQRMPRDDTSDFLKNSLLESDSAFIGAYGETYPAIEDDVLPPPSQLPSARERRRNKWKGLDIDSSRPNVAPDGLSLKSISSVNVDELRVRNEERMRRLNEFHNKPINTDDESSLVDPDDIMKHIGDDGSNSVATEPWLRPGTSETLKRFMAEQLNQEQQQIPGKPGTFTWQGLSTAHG
UniProt Q12996: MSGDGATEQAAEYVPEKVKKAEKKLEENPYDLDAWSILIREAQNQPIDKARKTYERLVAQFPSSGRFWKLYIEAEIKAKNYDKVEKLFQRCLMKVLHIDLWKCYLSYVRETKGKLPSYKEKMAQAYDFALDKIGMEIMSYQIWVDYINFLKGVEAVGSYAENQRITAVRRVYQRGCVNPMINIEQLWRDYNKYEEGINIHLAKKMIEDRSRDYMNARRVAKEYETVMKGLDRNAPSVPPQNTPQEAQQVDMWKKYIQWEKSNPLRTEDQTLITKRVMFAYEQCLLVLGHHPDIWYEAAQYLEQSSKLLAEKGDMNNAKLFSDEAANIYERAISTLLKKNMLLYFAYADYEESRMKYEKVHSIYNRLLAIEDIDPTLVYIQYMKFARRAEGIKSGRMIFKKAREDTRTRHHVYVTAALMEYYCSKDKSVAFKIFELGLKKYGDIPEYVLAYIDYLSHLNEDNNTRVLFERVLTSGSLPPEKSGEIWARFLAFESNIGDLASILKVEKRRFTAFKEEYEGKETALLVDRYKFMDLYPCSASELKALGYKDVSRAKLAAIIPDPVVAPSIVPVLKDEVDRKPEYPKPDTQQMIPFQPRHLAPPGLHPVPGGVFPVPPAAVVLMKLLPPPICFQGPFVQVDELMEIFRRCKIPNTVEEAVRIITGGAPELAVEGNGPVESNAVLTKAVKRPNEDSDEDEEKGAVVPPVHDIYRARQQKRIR
UniProt P08574: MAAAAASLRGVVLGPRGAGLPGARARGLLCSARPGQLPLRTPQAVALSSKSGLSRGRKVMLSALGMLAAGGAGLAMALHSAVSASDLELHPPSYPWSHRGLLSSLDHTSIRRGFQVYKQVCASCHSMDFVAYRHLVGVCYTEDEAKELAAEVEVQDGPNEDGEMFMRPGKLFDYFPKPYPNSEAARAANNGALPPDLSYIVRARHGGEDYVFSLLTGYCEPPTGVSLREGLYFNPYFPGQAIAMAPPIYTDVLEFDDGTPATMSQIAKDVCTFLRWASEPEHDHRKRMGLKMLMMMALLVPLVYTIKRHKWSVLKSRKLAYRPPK
UniProt Q5QP82: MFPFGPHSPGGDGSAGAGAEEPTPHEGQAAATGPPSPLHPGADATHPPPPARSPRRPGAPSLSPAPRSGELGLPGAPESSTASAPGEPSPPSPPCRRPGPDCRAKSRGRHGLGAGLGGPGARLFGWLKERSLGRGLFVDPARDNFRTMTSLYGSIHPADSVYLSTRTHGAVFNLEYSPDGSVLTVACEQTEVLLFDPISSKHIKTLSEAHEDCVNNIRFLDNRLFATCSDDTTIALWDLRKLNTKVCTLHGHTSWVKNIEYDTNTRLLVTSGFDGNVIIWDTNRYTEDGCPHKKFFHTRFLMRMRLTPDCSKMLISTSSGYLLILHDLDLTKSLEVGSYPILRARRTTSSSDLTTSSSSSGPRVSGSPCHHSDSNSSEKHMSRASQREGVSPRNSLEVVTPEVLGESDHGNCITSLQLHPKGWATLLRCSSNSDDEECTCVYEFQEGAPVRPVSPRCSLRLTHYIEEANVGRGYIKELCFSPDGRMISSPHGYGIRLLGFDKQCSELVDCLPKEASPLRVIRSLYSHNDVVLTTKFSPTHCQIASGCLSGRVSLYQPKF

compound: CC1=C(C=C(C=C1)NC(=O)C2=CC(=CC=C2)C(C)(C)C#N)NC3=CC4=C(C=C3)N=CN(C4=O)C; assay: log2 fold change, soluble protein after heating vs DMSO (PISA); higher = thermal stabilisation; K562 cells, 10 uM, 30 min; active = over 0.2 and 3.5 SD of the protein, either way, in both replicates (recomputed)
Procedure, shortened: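 K562 cells at 2×10^6 cells/mL were treated with 10 μM compound for 30 min. Aliquots were heated for 3 min across 48°C-58°C, pooled, and extracted in PBS with 0.5% NP-40 at 4°C; soluble protein was the supernatant after 21,000xg for 90 min. Soluble protein was quantified by TMTpro 16plex LC-MS/MS with channel sums equalised, and reported as log2 fold change in thermal stability against DMSO controls, with values from duplicates.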

Target | log2 fold change
CT47A1 (UniProt Q5JQC4) | inactive: 0.034
CWC27 (UniProt Q6UX04) | inactive: -0.001
CYB5B, A0A499FJ32 | inactive: 0.061
CUX1 isoform 2 (UniProt Q13948) | inactive: -0.07
CYB5R4 (UniProt Q7L1T6) | inactive: -0.014
CYHR1 (UniProt E9PJD7) | inactive: 0.043
DCAF7 (UniProt P61962) | inactive: 0.01
CT45A10 (UniProt P0DMU9) | inactive: -0.017
CTPS1 (UniProt P17812) | inactive: -0.023
CTH (UniProt P32929) | inactive: 0.039
CTNNA2 (UniProt P26232) | inactive: 0.029
CUL1 (UniProt Q13616) | inactive: -0.011
CTSL (UniProt P07711) | inactive: -0.083
CTNNB1 (UniProt P35222) | inactive: -0.118
CYB5R3 isoform 3 (UniProt P00387) | inactive: -0.012
CUTA isoform 2 (UniProt O60888) | inactive: -0.121
CTIF isoform 2 (UniProt O43310) | inactive: -0.092
CUL3 (UniProt Q13618) | inactive: 0.007
CUL2 isoform 2 (UniProt Q13617) | inactive: 0.006
CST3 (UniProt P01034) | inactive: 0.164

As a short view, some entries already given:
Target | log2 fold change
CT47A1 (UniProt Q5JQC4) | inactive: 0.034
CWC27 (UniProt Q6UX04) | inactive: -0.001
CYB5B, A0A499FJ32 | inactive: 0.061
CUX1 isoform 2 (UniProt Q13948) | inactive: -0.07
CYB5R4 (UniProt Q7L1T6) | inactive: -0.014
CYHR1 (UniProt E9PJD7) | inactive: 0.043
DCAF7 (UniProt P61962) | inactive: 0.01
CT45A10 (UniProt P0DMU9) | inactive: -0.017
CTPS1 (UniProt P17812) | inactive: -0.023

(listing goes on)

Target | log2 fold change
DAG1 (UniProt Q14118) | inactive: -0.053
D2HGDH (UniProt Q8N465) | inactive: 0.011
CTSV (UniProt O60911) | inactive: 0
CSTF1 (UniProt Q05048) | inactive: -0.027
CYB5R1 (UniProt Q9UHQ9) | inactive: -0.026
CTBP1 (UniProt Q13363) | inactive: 0.003
CYFIP2 (UniProt Q96F07) | inactive: 0.005
CUEDC2 (UniProt Q9H467) | inactive: -0.03
CXorf56 (UniProt Q9H5V9) | inactive: 0.002
CSPP1 (UniProt Q1MSJ5) | inactive: -0.009
DCAF15 (UniProt Q66K64) | inactive: -0.045
CSTF3 (UniProt Q12996) | inactive: -0.038
CYFIP1 (UniProt Q7L576) | inactive: 0.012
DCTN3 (UniProt O75935) | inactive: 0.073
DBR1 (UniProt Q9UK59) | inactive: -0.005
CYC1 (UniProt P08574) | inactive: 0
CTU2 (UniProt Q2VPK5) | inactive: -0.021
CTBS (UniProt Q01459) | inactive: 0.206
DCAF10 (UniProt Q5QP82) | inactive: -0.024
CTTN (UniProt Q14247) | inactive: -0.026
